Measurements published in paper doi:10.1101/2021.02.20.432055.
These are yes or no findings as the source states them, for the method shown. Binding seen in cells or lysates may run through a third protein. These calls come from enrichment with a bait or labelling near it, and not all partners need be listed. Where a sequence is shown, tags or fusion partners need not be part of it.

T1: SA1 (Stromalin Antigen 1, STAG1) (human (endogenous in HCT116)) (UniProt Q8WVM7)
T1 sequence: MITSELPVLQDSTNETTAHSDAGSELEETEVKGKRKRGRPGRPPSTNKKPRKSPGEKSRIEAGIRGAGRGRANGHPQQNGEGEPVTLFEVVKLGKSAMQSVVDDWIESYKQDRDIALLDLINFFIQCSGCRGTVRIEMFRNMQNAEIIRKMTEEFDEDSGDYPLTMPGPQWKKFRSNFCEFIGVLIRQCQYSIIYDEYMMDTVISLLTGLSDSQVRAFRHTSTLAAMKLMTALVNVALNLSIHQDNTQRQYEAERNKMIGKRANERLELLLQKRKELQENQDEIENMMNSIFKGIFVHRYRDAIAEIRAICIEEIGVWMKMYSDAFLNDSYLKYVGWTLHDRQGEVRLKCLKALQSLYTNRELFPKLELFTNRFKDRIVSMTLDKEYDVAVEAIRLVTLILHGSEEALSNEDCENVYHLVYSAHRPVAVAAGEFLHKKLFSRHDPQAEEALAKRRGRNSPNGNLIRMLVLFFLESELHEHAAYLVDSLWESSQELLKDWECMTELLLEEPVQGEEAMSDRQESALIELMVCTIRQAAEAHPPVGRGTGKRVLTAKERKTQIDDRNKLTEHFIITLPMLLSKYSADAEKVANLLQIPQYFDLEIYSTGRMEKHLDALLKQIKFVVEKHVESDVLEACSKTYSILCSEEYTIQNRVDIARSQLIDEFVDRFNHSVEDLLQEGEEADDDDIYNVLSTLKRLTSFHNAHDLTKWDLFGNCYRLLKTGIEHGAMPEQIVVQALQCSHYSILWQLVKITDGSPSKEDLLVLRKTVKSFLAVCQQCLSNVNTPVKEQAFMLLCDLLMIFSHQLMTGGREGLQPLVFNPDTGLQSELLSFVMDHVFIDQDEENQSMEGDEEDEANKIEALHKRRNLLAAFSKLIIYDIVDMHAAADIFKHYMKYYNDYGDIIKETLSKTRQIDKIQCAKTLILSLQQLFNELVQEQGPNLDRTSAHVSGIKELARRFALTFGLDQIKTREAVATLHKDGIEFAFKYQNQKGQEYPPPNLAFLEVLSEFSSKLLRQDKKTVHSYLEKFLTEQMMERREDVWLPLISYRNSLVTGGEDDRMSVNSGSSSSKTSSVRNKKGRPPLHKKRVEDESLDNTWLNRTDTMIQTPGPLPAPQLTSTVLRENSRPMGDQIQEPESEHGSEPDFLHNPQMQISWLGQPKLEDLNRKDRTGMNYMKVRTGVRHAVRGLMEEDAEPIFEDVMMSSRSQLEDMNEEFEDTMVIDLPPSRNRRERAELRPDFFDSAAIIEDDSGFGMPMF

B1: ADAR1 (protein, UniProt P55265 1-1226)
chain: MNPRQGYSLSGYYTHPFQGYEHRQLRYQQPGPGSSPSSFLLKQIEFLKGQLPEAPVIGKQTPSLPPSLPGLRPRFPVLLASSTRGRQVDIRGVPRGVHLRSQGLQRGFQHPSPRGRSLPQRGVDCLSSHFQELSIYQDQEQRILKFLEELGEGKATTAHDLSGKLGTPKKEINRVLYSLAKKGKLQKEAGTPPLWKIAVSTQAWNQHSGVVRPDGHSQGAPNSDPSLEPEDRNSTSVSEDLLEPFIAVSAQAWNQHSGVVRPDSHSQGSPNSDPGLEPEDSNSTSALEDPLEFLDMAEIKEKICDYLFNVSDSSALNLAKNIGLTKARDINAVLIDMERQGDVYRQGTTPPIWHLTDKKRERMQIKRNTNSVPETAPAAIPETKRNAEFLTCNIPTSNASNNMVTTEKVENGQEPVIKLENRQEARPEPARLKPPVHYNGPSKAGYVDFENGQWATDDIPDDLNSIRAAPGEFRAIMEMPSFYSHGLPRCSPYKKLTECQLKNPISGLLEYAQFASQTCEFNMIEQSGPPHEPRFKFQVVINGREFPPAEAGSKKVAKQDAAMKAMTILLEEAKAKDSGKSEESSHYSTEKESEKTAESQTPTPSATSFFSGKSPVTTLLECMHKLGNSCEFRLLSKEGPAHEPKFQYCVAVGAQTFPSVSAPSKKVAKQMAAEEAMKALHGEATNSMASDNQPEGMISESLDNLESMMPNKVRKIGELVRYLNTNPVGGLLEYARSHGFAAEFKLVDQSGPPHEPKFVYQAKVGGRWFPAVCAHSKKQGKQEAADAALRVLIGENEKAERMGFTEVTPVTGASLRRTMLLLSRSPEAQPKTLPLTGSTFHDQIAMLSHRCFNTLTNSFQPSLLGRKILAAIIMKKDSEDMGVVVSLGTGNRCVKGDSLSLKGETVNDCHAEIISRRGFIRFLYSELMKYNSQTAKDSIFEPAKGGEKLQIKKTVSFHLYISTAPCGDGALFDKSCSDRAMESTESRHYPVFENPKQGKLRTKVENGEGTIPVESSDIVPTWDGIRLGERLRTMSCSDKILRWNVLGLQGALLTHFLQPIYLKSVTLGYLFSQGHLTRAICCRVTRDGSAFEDGLRHPFIVNHPKVGRVSIYDSKRQSGKTKETSVNWCLADGYDLEILDGTRGTVDGPRNELSRVSKKNIFLLFKKLCSFRYRRDLLRLSYGEAKKAARDYETAKNYFKKGLKDMGYGNWISKPQEEKNFYLCPV
B2: FTSJ3 (protein, UniProt Q8IY81 1-847)
chain: MGKKGKVGKSRRDKFYHLAKETGYRSRSAFKLIQLNRRFQFLQKARALLDLCAAPGGWLQVAAKFMPVSSLIVGVDLVPIKPLPNVVTLQQDITTERCRQALRKELKTWKVDVVLNDGAPNVGASWVHDAYSQAHLTLMALRLACDFLARGGSFITKVFRSRDYQPLLWIFQQLFRRVQATKPQASRHESAEIFVVCQGFLAPDKVDSKFFDPKFAFKEVEVQAKTVTELVTKKKPKAEGYAEGDLTLYHRTSVTDFLRAANPVDFLSKASEIMVDDEELAQHPATTEDIRVCCQDIRVLGRKELRSLLNWRTKLRRYVAKKLKEQAKALDISLSSGEEDEGDEEDSTAGTTKQPSKEEEEEEEEEQLNQTLAEMKAQEVAELKRKKKKLLREQRKQRERVELKMDLPGVSIADEGETGMFSLSTIRGHQLLEEVTQGDMSAADTFLSDLPRDDIYVSDVEDDGDDTSLDSDLDPEELAGVRGHQGLRDQKRMRLTEVQDDKEEEEEENPLLVPLEEKAVLQEEQANLWFSKGSFAGIEDDADEALEISQAQLLFENRRKGRQQQQKQQLPQTPPSCLKTEIMSPLYQDEAPKGTEASSGTEAATGLEGEEKDGISDSDSSTSSEEEESWEPLRGKKRSRGPKSDDDGFEIVPIEDPAKHRILDPEGLALGAVIASSKKAKRDLIDNSFNRYTFNEDEGELPEWFVQEEKQHRIRQLPVGKKEVEHYRKRWREINARPIKKVAEAKARKKRRMLKRLEQTRKKAEAVVNTVDISEREKVAQLRSLYKKAGLGKEKRHVTYVVAKKGVGRKVRRPAGVRGHFKVVDSRMKKDQRAQQRKEQKKKHKRK
B3: DHX29 (protein, UniProt Q7Z478 1-1369)
chain: MGGKNKKHKAPAAAVVRAAVSASRAKSAEAGIAGEAQSKKPVSRPATAAAAAAGSREPRVKQGPKIYSFNSTNDSSGPANLDKSILKVVINNKLEQRIIGVINEHKKQNNDKGMISGRLTAKKLQDLYMALQAFSFKTKDIEDAMTNTLLYGGDLHSALDWLCLNLSDDALPEGFSQEFEEQQPKSRPKFQSPQIQATISPPLQPKTKTYEEDPKSKPKKEEKNMEVNMKEWILRYAEQQNEEEKNENSKSLEEEEKFDPNERYLHLAAKLLDAKEQAATFKLEKNKQGQKEAQEKIRKFQREMETLEDHPVFNPAMKISHQQNERKKPPVATEGESALNFNLFEKSAAATEEEKDKKKEPHDVRNFDYTARSWTGKSPKQFLIDWVRKNLPKSPNPSFEKVPVGRYWKCRVRVIKSEDDVLVVCPTILTEDGMQAQHLGATLALYRLVKGQSVHQLLPPTYRDVWLEWSDAEKKREELNKMETNKPRDLFIAKLLNKLKQQQQQQQQHSENKRENSEDPEESWENLVSDEDFSALSLESANVEDLEPVRNLFRKLQSTPKYQKLLKERQQLPVFKHRDSIVETLKRHRVVVVAGETGSGKSTQVPHFLLEDLLLNEWEASKCNIVCTQPRRISAVSLANRVCDELGCENGPGGRNSLCGYQIRMESRACESTRLLYCTTGVLLRKLQEDGLLSNVSHVIVDEVHERSVQSDFLLIILKEILQKRSDLHLILMSATVDSEKFSTYFTHCPILRISGRSYPVEVFHLEDIIEETGFVLEKDSEYCQKFLEEEEEVTINVTSKAGGIKKYQEYIPVQTGAHADLNPFYQKYSSRTQHAILYMNPHKINLDLILELLAYLDKSPQFRNIEGAVLIFLPGLAHIQQLYDLLSNDRRFYSERYKVIALHSILSTQDQAAAFTLPPPGVRKIVLATNIAETGITIPDVVFVIDTGRTKENKYHESSQMSSLVETFVSKASALQRQGRAGRVRDGFCFRMYTRERFEGFMDYSVPEILRVPLEELCLHIMKCNLGSPEDFLSKALDPPQLQVISNAMNLLRKIGACELNEPKLTPLGQHLAALPVNVKIGKMLIFGAIFGCLDPVATLAAVMTEKSPFTTPIGRKDEADLAKSALAMADSDHLTIYNAYLGWKKARQEGGYRSEITYCRRNFLNRTSLLTLEDVKQELIKLVKAAGFSSSTTSTSWEGNRASQTLSFQEIALLKAVLVAGLYDNVGKIIYTKSVDVTEKLACIVETAQGKAQVHPSSVNRDLQTHGWLLYQEKIRYARVYLRETTLITPFPVLLFGGDIEVQHRERLLSIDGWIYFQAPVKIAVIFKQLRVLIDSVLRKKLENPKMSLENDKILQIITELIKTENN
B4: ESYT2 (protein, UniProt A0FGR8 1-921)
chain: MTANRDAALSSHRHPGCAQRPRTPTFASSSQRRSAFGFDDGNFPGLGERSHAPGSRLGARRRAKTARGLRGHRQRGAGAGLSRPGSARAPSPPRPGGPENPGGVLSVELPGLLAQLARSFALLLPVYALGYLGLSFSWVLLALALLAWCRRSRGLKALRLCRALALLEDEERVVRLGVRACDLPAWVHFPDTERAEWLNKTVKHMWPFICQFIEKLFRETIEPAVRGANTHLSTFSFTKVDVGQQPLRINGVKVYTENVDKRQIILDLQISFVGNCEIDLEIKRYFCRAGVKSIQIHGTMRVILEPLIGDMPLVGALSIFFLRKPLLEINWTGLTNLLDVPGLNGLSDTIILDIISNYLVLPNRITVPLVSEVQIAQLRFPVPKGVLRIHFIEAQDLQGKDTYLKGLVKGKSDPYGIIRVGNQIFQSRVIKENLSPKWNEVYEALVYEHPGQELEIELFDEDPDKDDFLGSLMIDLIEVEKERLLDEWFTLDEVPKGKLHLRLEWLTLMPNASNLDKVLTDIKADKDQANDGLSSALLILYLDSARNLPSGKKISSNPNPVVQMSVGHKAQESKIRYKTNEPVWEENFTFFIHNPKRQDLEVEVRDEQHQCSLGNLKVPLSQLLTSEDMTVSQRFQLSNSGPNSTIKMKIALRVLHLEKRERPPDHQHSAQVKRPSVSKEGRKTSIKSHMSGSPGPGGSNTAPSTPVIGGSDKPGMEEKAQPPEAGPQGLHDLGRSSSSLLASPGHISVKEPTPSIASDISLPIATQELRQRLRQLENGTTLGQSPLGQIQLTIRHSSQRNKLIVVVHACRNLIAFSEDGSDPYVRMYLLPDKRRSGRRKTHVSKKTLNPVFDQSFDFSVSLPEVQRRTLDVAVKNSGGFLSKDKGLLGKVLVALASEELAKGWTQWYDLTEDGTRPQAMT

Target: T1, SA1 (Stromalin Antigen 1, STAG1) (human (endogenous in HCT116))
Assay: affinity purification with mass spectrometry

| Binder | binding |
| --- | --- |
| B1 | binds |
| B2 | binds |
| B3 | binds |
| B4 | binds |
